# PubChem BioAssay AID1224829 | NIAID – 2016
# Screen: 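Follow-up of TLR4-NF-kappaB regulators using six separate siRNAs for each gene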 (follow-up of hits)
# System: mouse RAW264.7 G9 macrophage reporter cells
# Reagent: single siRNA against mouse genes, 100 nM
# Timing: 2 days of siRNA knock-down, then 40 min of LPS before fixing
# Treatment: LPS (Salmonella minnesota R595) at 10 ng/ml
# Measurement: 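Imaging of GFP-p65 after 40 min of LPS; nuclear over perinuclear ring intensity ratio, scaled to plate median and non-targeting control wells, given as z-score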
# Direction: p65 translocation z-score and gene median z-score, per vendor: higher = more nuclear NF-kappaB p65 after LPS
# Active means: 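Active means the replicate-mean z-score lies beyond plus or minus 2, in either direction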
# Calls: active = changed p65 translocation (either direction); inactive = no clear change
# In all, the deposit lists about 3,800 reagents; this is a part drawn at random. 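Calls cover raised and lowered translocation; gene median uses one vendor's three siRNAs; qiagen siRNAs acted more weakly than ambion siRNAs.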 Entries without a mark were called inactive. Reagent sequences are not shown.
Gene,PubChem SID,siRNA vendor or control pool,"p65 translocation z-score, replicate mean","p65 translocation z-score, replicate 1","p65 translocation z-score, replicate 2","gene median z-score, per vendor"
Gsc2 (goosecoid homebox 2),SID315488007,qiagen single siRNA,2.12 (active),1.27,2.96,0.482
Gsc2 (goosecoid homebox 2),SID315488008,qiagen single siRNA,-0.538,-1.56,0.482,0.482
Gsc2 (goosecoid homebox 2),SID315488009,qiagen single siRNA,-2.15 (active),-2.15,,0.482
"Ap1g1 (adaptor protein complex AP-1, gamma 1 subunit)",SID315483711,ambion single siRNA,-0.596,2.12,-3.31,-2.75
"Ap1g1 (adaptor protein complex AP-1, gamma 1 subunit)",SID315483712,ambion single siRNA,-2.14 (active),-2.22,-2.06,-2.75
"Ap1g1 (adaptor protein complex AP-1, gamma 1 subunit)",SID315483713,ambion single siRNA,-4 (active),-4.72,-3.28,-2.75
"Ap1g1 (adaptor protein complex AP-1, gamma 1 subunit)",SID315483714,qiagen single siRNA,1.77,1.72,1.82,-0.462
"Ap1g1 (adaptor protein complex AP-1, gamma 1 subunit)",SID315483715,qiagen single siRNA,-1.23,-0.733,-1.73,-0.462
"Ap1g1 (adaptor protein complex AP-1, gamma 1 subunit)",SID315483716,qiagen single siRNA,-0.714,-0.191,-1.24,-0.462
Rufy3 (RUN and FYVE domain containing 3),SID315485637,ambion single siRNA,2.37 (active),2.68,2.07,1.31
Rufy3 (RUN and FYVE domain containing 3),SID315485638,ambion single siRNA,1.58,2.61,0.548,1.31
Rufy3 (RUN and FYVE domain containing 3),SID315485639,ambion single siRNA,-0.543,-0.208,-0.878,1.31
Rufy3 (RUN and FYVE domain containing 3),SID315485640,qiagen single siRNA,1.56,1.15,1.97,0.423
Rufy3 (RUN and FYVE domain containing 3),SID315485641,qiagen single siRNA,0.564,-0.305,1.43,0.423
Rufy3 (RUN and FYVE domain containing 3),SID315485642,qiagen single siRNA,-2.99 (active),-2.47,-3.51,0.423
Vps35 (VPS35 retromer complex component),SID315486303,ambion single siRNA,2.01 (active),2.45,1.57,-0.361
Vps35 (VPS35 retromer complex component),SID315486304,ambion single siRNA,-0.45,0.432,-1.33,-0.361
Vps35 (VPS35 retromer complex component),SID315486305,ambion single siRNA,-1.35,-1.54,-1.15,-0.361
Vps35 (VPS35 retromer complex component),SID315486306,qiagen single siRNA,1.2,0.688,1.72,-0.445
Vps35 (VPS35 retromer complex component),SID315486307,qiagen single siRNA,-2.13 (active),-1.25,-3,-0.445
Vps35 (VPS35 retromer complex component),SID315486308,qiagen single siRNA,-0.445,-1.1,0.206,-0.445
"Fam91a1 (family with sequence similarity 91, member A1)",SID315488076,ambion single siRNA,-2.06 (active),-2.06,,-0.055
"Fam91a1 (family with sequence similarity 91, member A1)",SID315488077,ambion single siRNA,1.45,1.13,1.77,-0.055
"Fam91a1 (family with sequence similarity 91, member A1)",SID315488078,ambion single siRNA,-1.24,-1.24,,-0.055
"Fam91a1 (family with sequence similarity 91, member A1)",SID315488079,qiagen single siRNA,3.16 (active),2.96,3.36,0.839
"Fam91a1 (family with sequence similarity 91, member A1)",SID315488080,qiagen single siRNA,0.839,0.302,1.38,0.839
"Fam91a1 (family with sequence similarity 91, member A1)",SID315488081,qiagen single siRNA,-1.09,-0.952,-1.22,0.839
"Prkab1 (protein kinase, AMP-activated, beta 1 non-catalytic subunit)",SID315484677,ambion single siRNA,1.68,1.92,1.44,-1.37
"Prkab1 (protein kinase, AMP-activated, beta 1 non-catalytic subunit)",SID315484678,ambion single siRNA,-2.08 (active),-2.83,-1.33,-1.37
"Prkab1 (protein kinase, AMP-activated, beta 1 non-catalytic subunit)",SID315484679,ambion single siRNA,-3.34 (active),-1.41,-5.27,-1.37
"Prkab1 (protein kinase, AMP-activated, beta 1 non-catalytic subunit)",SID315484680,qiagen single siRNA,0.783,1.87,-0.302,0.221
"Prkab1 (protein kinase, AMP-activated, beta 1 non-catalytic subunit)",SID315484681,qiagen single siRNA,-1.89,-1.4,-2.39,0.221
"Prkab1 (protein kinase, AMP-activated, beta 1 non-catalytic subunit)",SID315484682,qiagen single siRNA,2.29 (active),0.745,3.83,0.221
Gcm2 (glial cells missing homolog 2),SID315487479,ambion single siRNA,-7.61 (active),-9.11,-6.12,-2.45
Gcm2 (glial cells missing homolog 2),SID315487480,ambion single siRNA,-2.23 (active),-2.29,-2.17,-2.45
Gcm2 (glial cells missing homolog 2),SID315487481,ambion single siRNA,-1.97,-2.62,-1.31,-2.45
Gcm2 (glial cells missing homolog 2),SID315487482,qiagen single siRNA,3.47 (active),3.81,3.12,1.29
Gcm2 (glial cells missing homolog 2),SID315487483,qiagen single siRNA,1.29,0.832,1.75,1.29
Gcm2 (glial cells missing homolog 2),SID315487484,qiagen single siRNA,-1.7,-1.93,-1.47,1.29
Or13a25 (olfactory receptor family 13 subfamily A member 25),SID315488745,ambion single siRNA,,,,-0.591
Or13a25 (olfactory receptor family 13 subfamily A member 25),SID315488746,ambion single siRNA,-1.55,-1.23,-1.88,-0.591
Or13a25 (olfactory receptor family 13 subfamily A member 25),SID315488747,ambion single siRNA,0.405,0.761,0.0491,-0.591
Or13a25 (olfactory receptor family 13 subfamily A member 25),SID315488748,qiagen single siRNA,-0.802,-0.034,-1.57,-1.13
Or13a25 (olfactory receptor family 13 subfamily A member 25),SID315488749,qiagen single siRNA,-1.6,-0.259,-2.94,-1.13
Or13a25 (olfactory receptor family 13 subfamily A member 25),SID315488750,qiagen single siRNA,-1.29,-1.9,-0.688,-1.13
Zfp825 (zinc finger protein 825),SID315488439,ambion single siRNA,-3.89 (active),-3.89,,-2.38
Zfp825 (zinc finger protein 825),SID315488440,ambion single siRNA,,,,-2.38
Zfp825 (zinc finger protein 825),SID315488441,ambion single siRNA,-2.24 (active),-2.1,-2.38,-2.38
Zfp825 (zinc finger protein 825),SID315488442,qiagen single siRNA,1.63,1.08,2.18,0.678
Zfp825 (zinc finger protein 825),SID315488443,qiagen single siRNA,0.544,0.409,0.678,0.678
Zfp825 (zinc finger protein 825),SID315488444,qiagen single siRNA,-4.12 (active),-4.12,,0.678

Reformatted: entries from further up.
| Gene | PubChem SID | siRNA vendor or control pool | p65 translocation z-score, replicate mean | p65 translocation z-score, replicate 1 | p65 translocation z-score, replicate 2 | gene median z-score, per vendor |
| --- | --- | --- | --- | --- | --- | --- |
| Vps35 (VPS35 retromer complex component) | SID315486308 | qiagen single siRNA | -0.445 | -1.1 | 0.206 | -0.445 |
| Fam91a1 (family with sequence similarity 91, member A1) | SID315488076 | ambion single siRNA | -2.06 (active) | -2.06 | – | -0.055 |
| Fam91a1 (family with sequence similarity 91, member A1) | SID315488077 | ambion single siRNA | 1.45 | 1.13 | 1.77 | -0.055 |
| Fam91a1 (family with sequence similarity 91, member A1) | SID315488078 | ambion single siRNA | -1.24 | -1.24 | – | -0.055 |
| Fam91a1 (family with sequence similarity 91, member A1) | SID315488079 | qiagen single siRNA | 3.16 (active) | 2.96 | 3.36 | 0.839 |
| Fam91a1 (family with sequence similarity 91, member A1) | SID315488080 | qiagen single siRNA | 0.839 | 0.302 | 1.38 | 0.839 |
| Fam91a1 (family with sequence similarity 91, member A1) | SID315488081 | qiagen single siRNA | -1.09 | -0.952 | -1.22 | 0.839 |
